Source: publication PMC9909590
These are yes or no findings as the source states them, for the method shown. In cells and extracts the contact can be indirect. For some assays here: Tags and fused reporters may be left off the sequences shown.

Sequences of proteins named here, by UniProt entry; tags and fusion partners are left off. A change or cut given only in a name is not applied to a line headed by its entry.
UniProt P13681: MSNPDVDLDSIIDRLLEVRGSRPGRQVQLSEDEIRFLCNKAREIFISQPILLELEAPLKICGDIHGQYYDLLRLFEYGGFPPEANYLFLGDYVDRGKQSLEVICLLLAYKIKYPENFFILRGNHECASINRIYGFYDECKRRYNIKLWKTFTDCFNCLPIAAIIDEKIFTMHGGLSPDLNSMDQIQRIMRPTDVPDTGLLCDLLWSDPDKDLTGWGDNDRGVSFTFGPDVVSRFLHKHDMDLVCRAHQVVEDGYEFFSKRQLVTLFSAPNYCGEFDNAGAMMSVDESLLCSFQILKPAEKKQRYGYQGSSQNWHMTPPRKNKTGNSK
UniProt Q96UP3: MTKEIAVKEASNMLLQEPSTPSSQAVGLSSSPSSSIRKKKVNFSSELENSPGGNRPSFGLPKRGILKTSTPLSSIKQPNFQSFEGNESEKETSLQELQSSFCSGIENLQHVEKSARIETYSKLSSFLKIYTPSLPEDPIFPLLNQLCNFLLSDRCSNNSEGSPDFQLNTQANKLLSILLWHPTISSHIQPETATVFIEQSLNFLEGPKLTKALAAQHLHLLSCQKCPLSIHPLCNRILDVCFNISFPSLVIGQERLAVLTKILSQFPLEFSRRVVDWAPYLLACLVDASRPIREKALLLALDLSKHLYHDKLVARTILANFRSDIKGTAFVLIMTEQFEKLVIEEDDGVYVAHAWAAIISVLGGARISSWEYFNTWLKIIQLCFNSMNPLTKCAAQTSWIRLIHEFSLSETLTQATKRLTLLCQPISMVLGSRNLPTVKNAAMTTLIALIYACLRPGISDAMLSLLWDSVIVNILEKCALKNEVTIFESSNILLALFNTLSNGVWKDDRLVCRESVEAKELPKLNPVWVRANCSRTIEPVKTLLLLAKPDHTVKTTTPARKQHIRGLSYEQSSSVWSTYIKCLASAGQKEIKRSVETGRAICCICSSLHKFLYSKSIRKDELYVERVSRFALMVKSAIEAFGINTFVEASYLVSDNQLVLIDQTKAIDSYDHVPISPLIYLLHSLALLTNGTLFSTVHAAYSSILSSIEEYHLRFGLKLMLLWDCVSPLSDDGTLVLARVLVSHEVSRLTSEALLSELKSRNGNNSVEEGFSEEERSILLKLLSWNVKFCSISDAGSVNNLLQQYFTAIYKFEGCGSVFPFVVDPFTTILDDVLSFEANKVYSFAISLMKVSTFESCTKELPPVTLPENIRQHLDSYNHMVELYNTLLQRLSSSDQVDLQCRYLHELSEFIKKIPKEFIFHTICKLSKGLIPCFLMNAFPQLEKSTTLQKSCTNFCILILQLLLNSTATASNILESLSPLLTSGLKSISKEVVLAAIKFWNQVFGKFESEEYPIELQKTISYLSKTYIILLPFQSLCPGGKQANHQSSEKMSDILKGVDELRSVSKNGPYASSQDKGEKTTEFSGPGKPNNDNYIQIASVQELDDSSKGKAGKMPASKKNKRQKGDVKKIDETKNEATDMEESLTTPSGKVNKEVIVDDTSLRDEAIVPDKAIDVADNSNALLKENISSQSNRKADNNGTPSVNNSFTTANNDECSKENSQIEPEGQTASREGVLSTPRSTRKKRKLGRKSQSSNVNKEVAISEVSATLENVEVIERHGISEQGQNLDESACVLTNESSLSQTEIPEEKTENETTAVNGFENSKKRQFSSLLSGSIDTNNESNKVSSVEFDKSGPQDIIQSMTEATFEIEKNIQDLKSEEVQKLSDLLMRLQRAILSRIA

What was measured:
[1] = target: Dis2-13Myc (PP1) (Schizosaccharomyces pombe) (UniProt P13681); assay: co-IP; extracts of S. pombe cells expressing both Flag-tagged Rif1 and Myc-tagged PP1; PP1 immunoprecipitated with anti-c-Myc antibody on Protein G Dynabeads, 1 h; IP buffer 20 mM HEPES-KOH pH 7.6, 50 mM potassium acetate, 5 mM magnesium acetate, 0.1 M sorbitol, 0.1% Triton X-100, 2 mM DTT; co-immunoprecipitated Rif1 detected by blot
[2] = target: T1, Sds21-13Myc (PP1) (Schizosaccharomyces pombe) (UniProt P23880); assay: as above
T1 sequence: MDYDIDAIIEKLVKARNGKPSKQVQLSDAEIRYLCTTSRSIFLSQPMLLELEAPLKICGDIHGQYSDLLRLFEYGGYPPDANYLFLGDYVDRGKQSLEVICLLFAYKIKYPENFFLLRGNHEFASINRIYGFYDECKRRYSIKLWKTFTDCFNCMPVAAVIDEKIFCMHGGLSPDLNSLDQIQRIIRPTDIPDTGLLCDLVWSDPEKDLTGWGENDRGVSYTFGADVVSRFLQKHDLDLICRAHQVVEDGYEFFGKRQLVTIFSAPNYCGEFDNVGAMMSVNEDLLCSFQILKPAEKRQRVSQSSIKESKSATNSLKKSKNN

**Q.** For “rif1PP1bsmut-Flag3 (PP1-binding site mutant of Rif1) (from UniProt Q96UP3)”, which binding [1] is on record?
**A.** no binding

**Q.** What about the binding [2] of the same substance?
**A.** no binding
